Experimental data: PubChem BioAssay AID652243 (Drosophila RNAi Screening Center, 2013)

Purpose: 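Fly genes required for human androgen receptor driven transcription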 (primary screen)
Cell system: Drosophila S2R+ cells
Knock-down reagent: long dsRNA against Drosophila genes
Duration: 72 h (48 h, then 24 h hormone)
Challenge: synthetic androgen R1881 at 10 nM for 24 h
Measurement: 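Firefly light from an androgen-responsive reporter and Renilla control light per well, raw and unnormalised, for each of two replicates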
Scale: firefly reporter light: higher = more light from androgen-responsive reporter; Renilla control light: higher = more constitutive control signal (cell number, transfection)
Rule for the call: 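Across duplicate plates, a knock-down whose log firefly/Renilla ratio shifted a set fold down or up from the GFP/LacZ control mean was a hit; the downward cut appears as both 1.5 and 3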
Meaning of the calls: active = hit: reporter lowered or raised; inactive = no hit
The screen tested about 24,000 reagents; this is a random part of those that have a named target and a result. Of all reagents, 246 (1%) got an active call. 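Plates not normalised; calls are printed but the firefly/Renilla ratio behind them is not deposited; fold cut for lowering reported inconsistently.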 The raw values are shown without normalisation. A number with no mark means an inactive call. Reagents against one gene are numbered here. A plus sign joins genes that one reagent is predicted to hit. Not given: the amount of reagent.

gene,reagent,"firefly reporter light, replicate 1","firefly reporter light, replicate 2","Renilla control light, replicate 1","Renilla control light, replicate 2"
CG18178,1,4.47e5,4.31e5,5.45e5,6.49e5
BORCS7 + CG13430,1,8.47e5,6.13e5,1.43e6,8.50e5
BORCS7 + CG13430,2,1.34e5,1.31e5,1.11e6,1.12e6
CG17571,1,1.24e5,1.49e5,3.77e5,2.77e5
CG17571,2,1.83e5,2.05e5,1.58e6,1.48e6
CG17571,3,7.97e5,7.99e5,9.96e5,9.64e5
CG14356,1,2.48e5,1.75e5,3.47e6,2.67e6
CG10565,1,51435,42592,2.57e5,2.05e5
ND-23,1,1.07e5,74602,4.53e5,6.59e5
CG15199,1,6.69e5,4.58e5,3.76e6,3.03e6
Vajk2,1,2.48e5,2.28e5,1.88e6,2.13e6
Vajk2,2,6.50e5,7.89e5,8.70e5,9.36e5
Cam,1,5.25e5,8.04e5,8.94e5,1.45e6
Cam,2,5.18e5,4.03e5,2.52e6,1.50e6
tsg,1,4.66e5,3.41e5,3.64e6,2.55e6
tsg,2,4.32e5,4.23e5,7.30e5,6.15e5
CG13071,1,2.82e5,2.95e5,3.07e6,2.51e6
CG3257,1,1.14e6,2.98e5,1.42e6,8.01e5
CG3257,2,3.19e5,3.08e5,5.08e5,7.60e5

Looked up above.
CG10565, Renilla control light, replicate 1 = 2.57e5
CG14356, firefly reporter light, replicate 1 → 2.48e5
Under “firefly reporter light, replicate 2”, tsg #1 has 3.41e5
For “Renilla control light, replicate 1”, CG17571 #3 is entered as 9.96e5

Further results follow:
gene,reagent,"firefly reporter light, replicate 1","firefly reporter light, replicate 2","Renilla control light, replicate 1","Renilla control light, replicate 2"
CG9302,1,4.08e5,4.35e5,2.39e6,3.45e6
Antp,1,1.81e5 (active),1.76e5,9.62e5,1.05e6
Antp,2,2.97e5,2.87e5,5.78e5,6.13e5
ihog,1,7.31e5,9.96e5,2.07e6,2.40e6
ihog,2,3.70e5,6.57e5,4.58e5,4.58e5
TwdlO,1,1.83e5,2.54e5,2.29e6,2.33e6
CG12078,1,91850,1.03e5,1.04e6,1.36e6
CG15373,1,7.71e5,7.66e5,4.08e6,2.25e6
atos,1,2.65e5,2.11e5,1.57e6,1.24e6
AGO3,1,5.19e5,6.73e5,2.09e6,1.62e6
CG14694,1,70751,1.03e5,1.71e6,1.99e6
CG13086,1,1.45e5,2.07e5,1.91e6,2.35e6
CG13086,2,2.29e5,2.18e5,3.52e5,8.17e5
Mur89F,1,72917,96897,1.57e6,2.26e6
Mur89F,2,6.66e5,1.00e6,1.24e6,1.33e6
CG1233,1,1.17e6,1.00e6,1.20e6,1.04e6
CG1233,2,3.40e5,3.64e5,7.28e5,6.91e5
CG3040,1,4.45e5,5.52e5,6.13e5,8.59e5
SIDL,1,93663,1.15e5,5.98e5,8.33e5
CG1896,1,53788,68144,4.95e5,2.72e5
Polr1C,1,8.25e5,9.06e5,1.92e6,1.88e6
